# Assay results published in EP0643964A2 (priority 1993, dated 1995).
# Like-named read-outs stand apart in the source and are kept apart here.
# How the values were obtained:
# [1] = cited from earlier work
# M3 tumor = experiment: M3 transplanted mice, tumor area (lidocaine and epidoxorrubicine); format: in vivo
# Histoplasma capsulatum = conditions: TREATED ANIMALS
# [2] = tested on: M3 mammary adenocarcinoma
# [3] = tested on: copper sulfate intoxication
# Mycoplasma pneumoniae = conditions: 0.1 ml 0.2% i.p. twice a day 4 days, then 0.2 ml 0.2% once a day; 10 days after beginning of infection
smiles,measurement,setting,value
CCN(CC)CC(=O)Nc1c(C)cccc1C [lidocaine],therapeutic plasma level,[1]; in vivo,0.2-0.5 mg/100 ml
same,toxic level (plasma),[1]; in vivo,0.7-0.9 mg/100 ml
same,duration of adequate plasma levels,[1]; intramuscular route,≥ 2 h
same,time to adequate plasma levels,[1]; intramuscular route,30 min
same,intact drug excreted in urine,[1]; urine,5-10%
same,Area (tumor),"M3 tumor; day 10 p-t, regimens as Table 5 footnotes, saline control 0.92",0.55
same,I/Ø: Percentual increment over tumor in day 0 (day 7 p-t),"M3 tumor; day 18 p-t, saline control 701.39",200.52%
same,I/Ø: Percentual increment over tumor in day 0 (day 7 p-t),"M3 tumor; day 21 p-t, saline control 923.86",320.31%
same,I/Ø: Percentual increment over tumor in day 0 (day 7 p-t),"M3 tumor; day 23 p-t, saline control 1119.69",530.47%
same,"Lesions, kidney",Histoplasma capsulatum; Day 5 pi,no lesions
same,"Lesions, liver",Histoplasma capsulatum; Day 5 pi,small amount of necrosis
same,"Lesions, lung",Histoplasma capsulatum; Day 5 pi,no lesions
same,"Lesions, pancreas",Histoplasma capsulatum; Day 5 pi,no lesions
same,"Lesions, spleen",Histoplasma capsulatum; Day 5 pi,no lesions
same,"Lesions, kidney",Histoplasma capsulatum; Day 10 pi,no lesions
same,"Lesions, liver",Histoplasma capsulatum; Day 10 pi,small amount of necrosis
same,"Lesions, lung",Histoplasma capsulatum; Day 10 pi,no lesions
same,"Lesions, pancreas",Histoplasma capsulatum; Day 10 pi,no lesions
same,"Lesions, spleen",Histoplasma capsulatum; Day 10 pi,small amount granulomas
same,"Lesions, kidney",Histoplasma capsulatum; Day 15 pi,no lesions
same,"Lesions, liver",Histoplasma capsulatum; Day 15 pi,small amount of granulomas
same,"Lesions, lung",Histoplasma capsulatum; Day 15 pi,granulomas
same,"Lesions, pancreas",Histoplasma capsulatum; Day 15 pi,no lesions
same,"Lesions, spleen",Histoplasma capsulatum; Day 15 pi,small amount granuloma
same,I/Ø: Percentual increment over tumor in day 0 (day 7 p-t),"[2]; Group A (single dose), day 9 p-t",10.93%
same,I/Ø: Percentual increment over tumor in day 0 (day 7 p-t),"[2]; Group A (single dose), day 13 p-t",10.38%
same,I/Ø: Percentual increment over tumor in day 0 (day 7 p-t),"[2]; Group A (single dose), day 15 p-t",23.50%
same,I/Ø: Percentual increment over tumor in day 0 (day 7 p-t),"[2]; Group A (single dose), day 17 p-t",93.99%
same,I/Ø: Percentual increment over tumor in day 0 (day 7 p-t),"[2]; Group A (single dose), day 20 p-t",206.01%
same,I/Ø: Percentual increment over tumor in day 0 (day 7 p-t),"[2]; Group A (single dose), day 22 p-t",304.37%
same,I/Ø: Percentual increment over tumor in day 0 (day 7 p-t),"[2]; Group A (single dose), day 24 p-t",554.64%
same,Area (tumor),"[2]; Group A, 0.1 ml 0.05% lidocaine i.p. once on day 8, day 7 p-t (before treatment)",0.37 cm²
same,Area (tumor),"[2]; Group A, 0.1 ml 0.05% lidocaine i.p. once on day 8, day 9 p-t",0.41 cm²
same,Area (tumor),"[2]; Group A, 0.1 ml 0.05% lidocaine i.p. once on day 8, day 13 p-t",0.40 cm²
same,Area (tumor),"[2]; Group A, 0.1 ml 0.05% lidocaine i.p. once on day 8, day 15 p-t",0.45 cm²
same,Area (tumor),"[2]; Group A, 0.1 ml 0.05% lidocaine i.p. once on day 8, day 17 p-t",0.71 cm²
same,Area (tumor),"[2]; Group A, 0.1 ml 0.05% lidocaine i.p. once on day 8, day 20 p-t",1.12 cm²
same,Area (tumor),"[2]; Group A, 0.1 ml 0.05% lidocaine i.p. once on day 8, day 22 p-t",1.48 cm²
same,Area (tumor),"[2]; Group A, 0.1 ml 0.05% lidocaine i.p. once on day 8, day 24 p-t",2.40 cm²
same,I/Ø: Percentual increment over tumor in day 0 (day 7 p-t),"[2]; Group B (every 3 days), day 9 p-t",4.76%
same,I/Ø: Percentual increment over tumor in day 0 (day 7 p-t),"[2]; Group B (every 3 days), day 13 p-t",4.17%
same,I/Ø: Percentual increment over tumor in day 0 (day 7 p-t),"[2]; Group B (every 3 days), day 15 p-t",62.50%
same,I/Ø: Percentual increment over tumor in day 0 (day 7 p-t),"[2]; Group B (every 3 days), day 17 p-t",169.64%
same,I/Ø: Percentual increment over tumor in day 0 (day 7 p-t),"[2]; Group B (every 3 days), day 20 p-t",289.88%
same,I/Ø: Percentual increment over tumor in day 0 (day 7 p-t),"[2]; Group B (every 3 days), day 22 p-t",434.52%
same,I/Ø: Percentual increment over tumor in day 0 (day 7 p-t),"[2]; Group B (every 3 days), day 24 p-t",559.52%
same,Area (tumor),"[2]; Group B, 0.1 ml 0.05% lidocaine i.p. every 3 days from day 8, day 7 p-t (before treatment)",0.34 cm²
same,Area (tumor),"[2]; Group B, 0.1 ml 0.05% lidocaine i.p. every 3 days, day 9 p-t",0.35 cm²
same,Area (tumor),"[2]; Group B, 0.1 ml 0.05% lidocaine i.p. every 3 days, day 13 p-t",0.35 cm²
same,Area (tumor),"[2]; Group B, 0.1 ml 0.05% lidocaine i.p. every 3 days, day 15 p-t",0.55 cm²
same,Area (tumor),"[2]; Group B, 0.1 ml 0.05% lidocaine i.p. every 3 days, day 17 p-t",0.91 cm²
same,Area (tumor),"[2]; Group B, 0.1 ml 0.05% lidocaine i.p. every 3 days, day 20 p-t",1.31 cm²
same,Area (tumor),"[2]; Group B, 0.1 ml 0.05% lidocaine i.p. every 3 days, day 22 p-t",1.80 cm²
same,Area (tumor),"[2]; Group B, 0.1 ml 0.05% lidocaine i.p. every 3 days, day 24 p-t",2.22 cm²
same,Tumor growth compared with 0.05% lidocaine,[2]; tumors treated with 0.005% and 0.001% lidocaine,quite similar
same,Microscopic examination,[3]; Group A (0.05 ml lidocaine),Only minor balloonization of hepatocytes
same,Microscopic examination,[3]; Group B (0.1 ml lidocaine),No alterations were found
same,Microscopic examination,[3]; Group C (0.2 ml lidocaine),No alterations were found
same,Coloration of skin and mucosa,[3]; group C (0.2 ml lidocaine oral),no bluish coloration
same,Coloration of skin and mucosa,[3]; groups A and B (0.05 and 0.1 ml lidocaine oral),presented a bluish coloration of skin and mucosa
same,Mortality,"[3]; groups A, B, C: 20mg CuSO₄ i.p. + 0.05, 0.1 or 0.2 ml lidocaine oral twice a day 2 days, all untreated died from 48 hours",No mortality was found
same,Lung microscopic examination,Mycoplasma pneumoniae,scarce pneumonic foci
